{"source": "PubChem BioAssay AID652248 (Drosophila RNAi Screening Center, 2013)", "aim": "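Kinases and phosphatases whose loss pushes fly blood cells toward elongated shapes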 (primary screen)", "cell system": "cultured Drosophila hemocytes", "reagent": "long dsRNA against Drosophila genes", "measurement": "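Automated microscopy of stained actin, tubulin and nuclei; single-cell shape measures assigned to five reference shape types, giving a score per dsRNA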", "reading the numbers": "elongated score: higher = more elongated bipolar cells", "hit rule": "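a gene counts as active when its knock-down clearly increases the elongated score; a low similarity score was then used to rank the actives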", "note": "The deposit covers 863 reagents; this is an unselected part. In the full data, 32 (3.7%) were called active. 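Calls also used reproducibility and a similarity ranking whose scores are not deposited; many active genes show only modest elongated scores.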 Unmarked entries are inactive. The numbers tell different reagents against one gene apart. Further read-outs or replicates are left out here. Not stated in the record: the amount of reagent, the time to read-out."}
The opening 2 entries, to show the layout:
{"gene": "Ptp69D", "dsRNA no.": 1, "elongated score, rep 1": -0.53}
{"gene": "Pi4KIIalpha", "dsRNA no.": 1, "elongated score, rep 1": 0.26}

Main list, from the start:
{"gene": "Ptp69D", "dsRNA no.": 1, "elongated score, rep 1": -0.53}
{"gene": "Pi4KIIalpha", "dsRNA no.": 1, "elongated score, rep 1": 0.26}
{"gene": "Pi4KIIalpha", "dsRNA no.": 2, "elongated score, rep 1": -0.53}
{"gene": "Pi4KIIalpha", "dsRNA no.": 3, "elongated score, rep 1": 1.54}
{"gene": "I-t", "dsRNA no.": 1, "elongated score, rep 1": -0.53}
{"gene": "cdi", "dsRNA no.": 1, "elongated score, rep 1": -0.24}
{"gene": "cdi", "dsRNA no.": 2, "elongated score, rep 1": -0.33}
{"gene": "CG4546", "dsRNA no.": 1, "elongated score, rep 1": -0.53}
{"gene": "CG4546", "dsRNA no.": 2, "elongated score, rep 1": 1.7}
{"gene": "spag", "dsRNA no.": 1, "elongated score, rep 1": -0.53}
{"gene": "Pak", "dsRNA no.": 1, "elongated score, rep 1": -0.53}
{"gene": "Pak", "dsRNA no.": 2, "elongated score, rep 1": -0.25}
{"gene": "Drak", "dsRNA no.": 1, "elongated score, rep 1": 1.12}
{"gene": "Drak", "dsRNA no.": 2, "elongated score, rep 1": 3.7}
{"gene": "Drak", "dsRNA no.": 3, "elongated score, rep 1": 3.61}
{"gene": "CG7236", "dsRNA no.": 1, "elongated score, rep 1": 1.34}
{"gene": "CG7236", "dsRNA no.": 2, "elongated score, rep 1": -0.06}
{"gene": "Papss", "dsRNA no.": 1, "elongated score, rep 1": 0.01}
{"gene": "Papss", "dsRNA no.": 2, "elongated score, rep 1": 0.09}
{"gene": "CG32944", "dsRNA no.": 1, "elongated score, rep 1": -0.53}
{"gene": "CG32944", "dsRNA no.": 2, "elongated score, rep 1": 1.06}
{"gene": "CG31140", "dsRNA no.": 1, "elongated score, rep 1": -0.14}
{"gene": "CG31140", "dsRNA no.": 2, "elongated score, rep 1": -0.53}
{"gene": "CG10376", "dsRNA no.": 1, "elongated score, rep 1": 0.23}
{"gene": "CG10376", "dsRNA no.": 2, "elongated score, rep 1": 0.04}
{"gene": "png", "dsRNA no.": 1, "elongated score, rep 1": 0.32}
{"gene": "png", "dsRNA no.": 2, "elongated score, rep 1": 0.14}
{"gene": "Mbs", "dsRNA no.": 1, "elongated score, rep 1": -0.53}
{"gene": "Mbs", "dsRNA no.": 2, "elongated score, rep 1": 0.37}
{"gene": "Mbs", "dsRNA no.": 3, "elongated score, rep 1": -0.53}
{"gene": "Mbs", "dsRNA no.": 4, "elongated score, rep 1": -0.53}
{"gene": "p38a", "dsRNA no.": 1, "elongated score, rep 1": -0.53}
{"gene": "pyd", "dsRNA no.": 1, "elongated score, rep 1": -0.03}
{"gene": "pyd", "dsRNA no.": 2, "elongated score, rep 1": -0.53}
{"gene": "pyd", "dsRNA no.": 3, "elongated score, rep 1": -0.53}
{"gene": "pyd", "dsRNA no.": 4, "elongated score, rep 1": 0.38}
{"gene": "pyd", "dsRNA no.": 5, "elongated score, rep 1": 0.12}
{"gene": "pyd", "dsRNA no.": 6, "elongated score, rep 1": -0.53}
